PubChem BioAssay AID652259 | Drosophila RNAi Screening Center – 2013
In all, the deposit lists about 22,000 reagents; this is an unselected part of those with a known target gene and a result. In the full data, 233 (1.1%) were called active. 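Light values are raw, unnormalised plate reads; the ratio scores behind the reporter calls were not deposited.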 A number with no mark means an inactive call. A plus sign joins genes that one reagent is predicted to hit. Not stated in the record: the amount of reagent, the time to read-out, the dose of the treatment.

- Screen: 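Genome-wide hunt for genes that control Wingless pathway activity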 (primary screen)
- Cell system: Drosophila clone 8 imaginal disc epithelial cells
- Knock-down reagent: long dsRNA against Drosophila genes
- Challenge: pathway stimulated by co-transfected Wingless expression plasmid
- Read-out: 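Dual luciferase reads per well after Wingless plasmid stimulation: reporter firefly light and Renilla control light; activity is firefly divided by Renilla, a ratio not deposited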
- Direction: firefly reporter light: higher = more Wg reporter light, before normalisation; Renilla control light: higher = more transfected or surviving cells
- Rule for the call: 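a knock-down is a candidate when at least two out of four statistical tests show it departing from its plate mean; one test alone signals a weak candidate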
- Calls: active = candidate regulator (raises or lowers reporter); inactive = not a candidate

target gene | amplicon | reporter change call, replicate 1 | firefly reporter light, replicate 1 | firefly reporter light, replicate 2 | Renilla control light, replicate 1 | Renilla control light, replicate 2
Dtg | DRSC15998 | – | 7236 | – | 3015 | –
Hr96 | DRSC16707 | – | 3321 | 5672 | 1257 | 2106
CG6403 | DRSC16033 | – | 10426 | – | 3596 | –
Tom70 | DRSC02990 | Wg reporter activity lowered | 1050 | 4845 | 842 | 1936
sad | DRSC16630 | – | 17945 | – | 4344 | –
Tektin-C | DRSC09741 | – | 2585 | 10912 | 1236 | 3510
RpL35 | DRSC18347 | – | 23445 | – | 9412 | –
CG42374 + Mettl5 | DRSC11085 | – | 9180 | – | 3047 | –
Ctns | DRSC15175 | – | 18097 | – | 13795 | –
CG13622 | DRSC14624 | – | 12849 | – | 10724 | –
SREBP | DRSC11182 | – | 5696 | – | 1762 | –
CG9664 | DRSC00725 | – | 11280 | – | 5717 | –
CG12438 | DRSC02167 | – | 2233 | 6274 | 518 | 2804
ZAP3 | DRSC17852 | – | 2080 | 5813 | 646 | 1421
ZAP3 | DRSC17853 | – | 22231 | – | 10541 | –
ZAP3 | DRSC18249 | – | 20672 | – | 10516 | –
CG31031 (retired record) | DRSC13964 | – | 4048 | – | 1962 | –
Sgs1 | DRSC00787 | – | 3638 | 4145 | 1274 | 952
Sgs1 | DRSC00848 | – | 24869 | – | 14077 | –
Lcp65APsi | DRSC08795 | – | 5907 | – | 2022 | –
Lcp65APsi | DRSC10342 | – | 1194 | 11176 | 1090 | 3941
CG17712 | DRSC00266 | – | 13900 | – | 6464 | –
CG42663 | DRSC06158 | – | 7248 | – | 1750 | –
CG42663 | DRSC06404 | – | 7024 | – | 2503 | –
mRpS23 | DRSC01348 | – | 25542 | – | 12392 | –
CG10839 | DRSC01965 | – | 3292 | 4780 | 913 | 2505
CG34159 | DRSC02885 | – | 2119 | 6423 | 485 | 1684
mRpL49 | DRSC19908 | – | 17754 | – | 8512 | –
Gem3 | DRSC11144 | – | 6492 | – | 2888 | –
lncRNA:CR43270 | DRSC11575 | – | 3453 | – | 1313 | –
Eip63F-1 | DRSC08072 | – | 3953 | – | 1936 | –
Eip63F-1 | DRSC08659 | – | 10121 | – | 5148 | –
rswl | DRSC06923 | – | 16584 | – | 3851 | –
CG9743 | DRSC16552 | – | 5347 | – | 1840 | –
CG1889 + CG43386 | DRSC17979 | – | 33926 | – | 10624 | –
CG32801 | DRSC17964 | – | 18781 | – | 13784 | –
scu | DRSC20369 | – | 17507 | – | 6787 | –
Hs2st | DRSC03348 | – | 9320 | – | 3163 | –
CG2861 | DRSC18229 | – | 15892 | – | 9098 | –
Ubqn | DRSC19581 | – | 3776 | 8667 | 1078 | 2104
SNCF | DRSC10115 | – | 4709 | – | 1904 | –
Hmbs | DRSC08632 | – | 15376 | – | 3298 | –

Targets listed so far whose gene name starts with L or l (3):
target gene | amplicon | reporter change call, replicate 1 | firefly reporter light, replicate 1 | firefly reporter light, replicate 2 | Renilla control light, replicate 1 | Renilla control light, replicate 2
Lcp65APsi | DRSC08795 | – | 5907 | – | 2022 | –
Lcp65APsi | DRSC10342 | – | 1194 | 11176 | 1090 | 3941
lncRNA:CR43270 | DRSC11575 | – | 3453 | – | 1313 | –

Continued.
target gene | amplicon | reporter change call, replicate 1 | firefly reporter light, replicate 1 | firefly reporter light, replicate 2 | Renilla control light, replicate 1 | Renilla control light, replicate 2
CG3987 | DRSC15531 | – | 6418 | – | 2739 | –
CG33108 | DRSC21613 | – | 7.40e5 | 6.49e5 | 2.88e5 | 2.91e5
CG32095 | DRSC22615 | – | 4.27e5 | 3.85e5 | 1.50e5 | 1.04e5
Mpp6 | DRSC03169 | – | 2072 | 4768 | 576 | 1965
Unc-76 | DRSC18193 | – | 14528 | – | 10008 | –
Unc-76 | DRSC18560 | – | 30595 | – | 15576 | –
GstD9 | DRSC14185 | – | 9152 | – | 3520 | –
CG32281 | DRSC08236 | – | 4199 | – | 2112 | –
Ir85a | DRSC14382 | – | 19917 | – | 5673 | –
Mrp4 | DRSC14931 | – | 21696 | – | 3786 | –
Nprl3 | DRSC11044 | Wg reporter activity lowered | 3513 | – | 1544 | –
Sirt1 | DRSC03435 | – | 6649 | – | 1680 | –
CG43098 | DRSC08051 | – | 3165 | – | 1362 | –
HINT1 | DRSC00548 | – | 2833 | 4429 | 1064 | 1780
CG15635 | DRSC00470 | – | 2683 | 8688 | 1126 | 2129
CG15635 | DRSC22873 | – | 5.06e5 | 4.70e5 | 2.05e5 | 112
Elp4 | DRSC02999 | – | 2162 | 2968 | 726 | 561
CG13625 | DRSC14627 | – | 3425 | 4637 | 1224 | 1521
CG14507 | DRSC14859 | – | 5560 | – | 2518 | –
SmydA-4 | DRSC19390 | – | 26593 | – | 12258 | –
SmydA-4 | DRSC21866 | – | 6.29e5 | 6.62e5 | 2.48e5 | 2.52e5
stil | DRSC07699 | – | 6049 | – | 2268 | –
CG31560 | DRSC12136 | – | 9004 | – | 2246 | –
CG13694 | DRSC00363 | – | 2423 | 6881 | 1357 | 2806
Cyp9b1 | DRSC07389 | – | 3030 | 5174 | 568 | 2393
Sk1 | DRSC19774 | – | 18256 | – | 9108 | –
CG9839 | DRSC16574 | – | 5031 | – | 1553 | –
asRNA:CR31084 | DRSC21649 | – | 6.55e5 | 6.49e5 | 4.33e5 | 3.38e5
Cnot4 | DRSC02830 | – | 3866 | 6563 | 1248 | 2608
Cnot4 | DRSC02831 | – | 4429 | 9917 | 870 | 1825
CG32204 | DRSC09574 | – | 2112 | – | 599 | –
CG14636 | DRSC12223 | – | 14246 | – | 4534 | –
CG32053 | DRSC10683 | – | 4451 | – | 1975 | –
CG4218 | DRSC01939 | – | 3640 | 8256 | 1315 | 3500
Had2 | DRSC05971 | – | 14753 | – | 4583 | –
TfIIFalpha | DRSC12608 | – | 6777 | – | 1780 | –
CG31633 | DRSC02275 | – | 2501 | 4689 | 1232 | 2476
CG2116 | DRSC18206 | – | 5536 | 6987 | 1062 | 1450
TotC | DRSC13449 | – | 3131 | – | 1618 | –
CG17625 | DRSC15249 | – | 13851 | – | 11121 | –
CG12991 | DRSC19511 | – | 26704 | – | 10685 | –
GLS | DRSC07261 | – | 13217 | – | 3629 | –
Su(var)3-7 | DRSC16872 | – | 12272 | – | 2348 | –
CG5021 | DRSC10469 | – | 1868 | 7856 | 1195 | 2944
Pask | DRSC04337 | – | 7008 | – | 2311 | –
mRpS16 | DRSC07152 | – | 6282 | – | 2580 | –
Lsm10 | DRSC06250 | – | 1955 | 6304 | 715 | 2712
CG9016 | DRSC03127 | – | 2954 | 5081 | 933 | 1105
fsd | DRSC06166 | – | 6070 | – | 2633 | –
CG7377 | DRSC10830 | – | 8397 | – | 2344 | –
CG4393 | DRSC15573 | – | 19863 | – | 16519 | –
